Results deposited as PubChem BioAssay AID1159578 (Peter MacCallum Cancer Centre, 2015)

Test: 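siRNA pools altering how lymphatic endothelial cells close a scratch wound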 (primary screen)
System: human lymphatic endothelial cells
Reagent: siRNA pool against human genes, 40 nM
Time to read-out: 48 h after transfection
Measured: 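Cells stained with dye and imaged after a scratch; covered wound area and nuclei counted, duplicates averaged, migration set against mock wells and turned into a robust z-score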
Scale: migration robust z-score: higher = faster migration into the scratch; nuclei per well: higher = more cells in the well
Call rule: 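Pools averaging fewer than 3300 nuclei are never called; remaining pools count as changed when migration robust z lies outside -2 to 2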
Calls: active = migration changed; inactive = no migration change, or too few cells
The deposit covers about 18,000 reagents; shown is a random part of them. About 1,030 of them (5.7%) count as active. 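Inactive calls also include pools with fewer than 3300 nuclei, whose migration was not assessed.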 Raw values are not corrected between plates. The numbers tell different reagents against one gene apart. Not all columns of the deposit are shown.

{"target gene": "EVI5", "reagent no.": 1, "migration robust z-score": -0.45, "nuclei per well, duplicate mean": 6218, "activity call": "inactive"}
{"target gene": "COQ8A", "reagent no.": 1, "migration robust z-score": 0.29, "nuclei per well, duplicate mean": 5025, "activity call": "inactive"}
{"target gene": "RP1", "reagent no.": 1, "migration robust z-score": 0.38, "nuclei per well, duplicate mean": 3342, "activity call": "inactive"}
{"target gene": "KRT28", "reagent no.": 1, "migration robust z-score": -0.55, "nuclei per well, duplicate mean": 6428, "activity call": "inactive"}
{"target gene": "OR2A42", "reagent no.": 1, "migration robust z-score": 0.27, "nuclei per well, duplicate mean": 4681, "activity call": "inactive"}
{"target gene": "FAM131C", "reagent no.": 1, "migration robust z-score": 0.15, "nuclei per well, duplicate mean": 6214, "activity call": "inactive"}
{"target gene": "R3HDM1", "reagent no.": 1, "migration robust z-score": 1.16, "nuclei per well, duplicate mean": 4638, "activity call": "inactive"}
{"target gene": "TRMT61A", "reagent no.": 1, "migration robust z-score": -0.7, "nuclei per well, duplicate mean": 5722, "activity call": "inactive"}
{"target gene": "CPD", "reagent no.": 1, "migration robust z-score": 0.75, "nuclei per well, duplicate mean": 5400, "activity call": "inactive"}
{"target gene": "ZBTB44", "reagent no.": 1, "migration robust z-score": -0.02, "nuclei per well, duplicate mean": 6486, "activity call": "inactive"}
{"target gene": "PNMA3", "reagent no.": 1, "migration robust z-score": 0.79, "nuclei per well, duplicate mean": 5202, "activity call": "inactive"}
{"target gene": "MIA2", "reagent no.": 1, "migration robust z-score": -0.12, "nuclei per well, duplicate mean": 6522, "activity call": "inactive"}
{"target gene": "MIA2", "reagent no.": 2, "migration robust z-score": 2.36, "nuclei per well, duplicate mean": 7109, "activity call": "active"}
{"target gene": "MTSS2", "reagent no.": 1, "migration robust z-score": 0.79, "nuclei per well, duplicate mean": 6653, "activity call": "inactive"}
{"target gene": "UBAP2", "reagent no.": 1, "migration robust z-score": 0.09, "nuclei per well, duplicate mean": 4986, "activity call": "inactive"}

Continued; the last 2 above are carried over.
{"target gene": "MTSS2", "reagent no.": 1, "migration robust z-score": 0.79, "nuclei per well, duplicate mean": 6653, "activity call": "inactive"}
{"target gene": "UBAP2", "reagent no.": 1, "migration robust z-score": 0.09, "nuclei per well, duplicate mean": 4986, "activity call": "inactive"}
{"target gene": "CAPN7", "reagent no.": 1, "migration robust z-score": 0.78, "nuclei per well, duplicate mean": 6378, "activity call": "inactive"}
{"target gene": "OR10H4", "reagent no.": 1, "migration robust z-score": -3.15, "nuclei per well, duplicate mean": 5665, "activity call": "active"}
{"target gene": "COL20A1", "reagent no.": 1, "migration robust z-score": -0.94, "nuclei per well, duplicate mean": 5674, "activity call": "inactive"}
{"target gene": "ZNHIT3", "reagent no.": 1, "migration robust z-score": -0.62, "nuclei per well, duplicate mean": 6872, "activity call": "inactive"}
{"target gene": "RBBP4", "reagent no.": 1, "migration robust z-score": 0.75, "nuclei per well, duplicate mean": 5286, "activity call": "inactive"}
{"target gene": "CDC34", "reagent no.": 1, "migration robust z-score": 2.08, "nuclei per well, duplicate mean": 3579, "activity call": "active"}
{"target gene": "ADORA1", "reagent no.": 1, "migration robust z-score": -0.91, "nuclei per well, duplicate mean": 5276, "activity call": "inactive"}
{"target gene": "GATAD2A", "reagent no.": 1, "migration robust z-score": -0.55, "nuclei per well, duplicate mean": 5580, "activity call": "inactive"}
{"target gene": "CETN2", "reagent no.": 1, "migration robust z-score": -0.53, "nuclei per well, duplicate mean": 5286, "activity call": "inactive"}
{"target gene": "CDC42EP1", "reagent no.": 1, "migration robust z-score": -0.9, "nuclei per well, duplicate mean": 4583, "activity call": "inactive"}
{"target gene": "SHROOM1", "reagent no.": 1, "migration robust z-score": 0.96, "nuclei per well, duplicate mean": 4606, "activity call": "inactive"}
{"target gene": "VTA1", "reagent no.": 1, "migration robust z-score": -1.26, "nuclei per well, duplicate mean": 6242, "activity call": "inactive"}
